Patent US9504660B2, “Retinaldehyde mimetics and inhibitors of retinaldehyde dehydrogenase I in the treatment of disorders” (THE BRIGHAM AND WOMEN'S HOSPITAL, INC., priority 2012, dated 2016)
At least one compound was matched to its structure with a doubt left.

Tested on: UCP-1
Test: UCP-1 gene expression in 10T1/2 cells during adipogenic differentiation
Type: cell-based, murine
Conditions: 1 pM during adipogenic differentiation, compared to vehicle-treated cells
Method: C3H10T1/2, isolated human stromal-vascular cells and Aldh1a1^−/− MEFs were cultured and differentiated as previously described^8. Briefly, cells were grown to confluence in DMEM, 10% fetal bovine serum (FBS) and 1% penicillin/streptomycin followed by standard adipogenic induction (20 nM insulin, 1 nM T3, 0.5 mM isobutylmethylxanthine, […], 0.125 mM indomethacin) and stimulation with retinoids, retinoid antagonists or vehicle (DMSO) as indicated. After a 48 h induction phase, growth media was supplemented with insulin, T3, and indicated retinoids which were changed every other day up to day 6.
Total RNA was extracted (RNeasy, Qiagen, Hi[den, Germany), DNase-treated (Qiagen), and reverse-transcribed to cDNA. Gene expression, normalized to 36B4, was analyzed by quantitative real-time RT-PCR (Sybr Green, 96 well plates) using a MyiQ cycler (Bio-Rad, Hercules, Calif.). Primer sequences are available upon request.

Q: How did the UCP-1 gene expression turn out when `CCN(CC)c1ccc(C=O)cc1` [DEAB, diethyl aminobenzaldehyde, reference compound] was run?
A: significantly increased
